Some of the results follow.

Sequences of proteins named here, by UniProt entry; tags and fusion partners are left off.
UniProt Q0JBA9, entry or part of it: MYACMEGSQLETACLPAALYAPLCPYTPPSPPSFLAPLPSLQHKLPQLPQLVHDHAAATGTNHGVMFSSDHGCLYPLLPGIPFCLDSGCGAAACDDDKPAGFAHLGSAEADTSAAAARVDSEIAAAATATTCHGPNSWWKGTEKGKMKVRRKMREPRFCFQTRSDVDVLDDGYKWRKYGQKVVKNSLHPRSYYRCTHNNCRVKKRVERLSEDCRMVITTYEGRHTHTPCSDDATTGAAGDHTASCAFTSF

For the test, the target named is OsWRKY34 (Oryza sativa, UniProt Q0JBA9 1-250). As to the kind of experiment: protein-binding microarray (RPBM); PBS, 2% BSA, 51.3 ng/ul salmon testes DNA, 50 uM zinc acetate, 200 nM TF, 25 C, 1 h; high values mean tight binding. Particulars: protein: recombinant; tags: N-terminal polyhistidine and DsRed monomer fusion (pET32a); label: CyDye5-dUTP incorporated in the synthesized complementary strand; 3' TTTTT single-stranded linker to array surface; dsDNA, one strand shown. The gist of the method: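 An Axon 4000B scanner gave the binding signal as per-feature fluorescence intensity in arbitrary units. This followed washing of a custom Agilent array that had been incubated for 1 h at 25 °C with 200 nM protein in PBS, 2% BSA, salmon testes DNA and 50 µM zinc acetate. The proteins were transcription factors fused at the N-terminus to polyhistidine and DsRed, expressed in E. coli BL21-CodonPlus and purified on Ni–NTA.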
Turning to “GATTTTGAGTTTTTGCTTGCAACGTTTGACCACTCGTCTTCGGAGTCACCTAGTGCAG”, the binding signal was 8290 fluorescence intensity (a.u.).

For the sequence “CCTCGCCTCGATCGGTCTCGCCCGCTCCGCTTTCACGCCGCGGAGTCACCTAGTGCAG”, the binding signal was 9760 fluorescence intensity (a.u.).

“GACATCGACCTCCACGCCTGCCGGCCGCCCCACCCCGATGCGGAGTCACCTAGTGCAG”: the binding signal was 8640 fluorescence intensity (a.u.).

In the case of “CGGTTTCATCCTCCTGTCCTCCTGGTAAGCCTCGAAAAAACGGAGTCACCTAGTGCAG”, the binding signal is 10700 fluorescence intensity (a.u.).

In the case of “TCTTGGTCCTTCTATTATATGCAATGACGCGCATCTGTTACGGAGTCACCTAGTGCAG”, the binding signal is 10200 fluorescence intensity (a.u.).

Take “AATCTCGTCTCGCCATTCTCTCTCTCACACACACACCTCGCGGAGTCACCTAGTGCAG”: the binding signal is 9550 fluorescence intensity (a.u.).

As for “GTCTTCTCCGGCGTGTCGTCCCTCTCCATCGCCGCCGCCACGGAGTCACCTAGTGCAG”, the binding signal was 9100 fluorescence intensity (a.u.).

In the case of “CAGTTCTTTTGTTTCTTTGACATCATTAGCCTTACATTTGCGGAGTCACCTAGTGCAG”, the binding signal is 8470 fluorescence intensity (a.u.).

In the case of “GGGGTTTCTCATGGGCCAACTATACATTCACACGCGGCCGCGGAGTCACCTAGTGCAG”, the binding signal is 17400 fluorescence intensity (a.u.).

For the sequence “TCGTGATTGTTGTTGTTGTTGCTGCATTAGGCTGTGTTGCCGGAGTCACCTAGTGCAG”, the binding signal was 12300 fluorescence intensity (a.u.).

Consider “GCATGGAGGCGTTTCATCAAACACCTTGCGCCTGCGGGAGCGGAGTCACCTAGTGCAG”, for which the binding signal was 8030 fluorescence intensity (a.u.).

For the sequence “GATCTATGTGGATTGTCAGGGTCGATGTGTCTTTTGTGTGCGGAGTCACCTAGTGCAG”, the binding signal is 8410 fluorescence intensity (a.u.).

For the sequence “ATTCCGCGCGCCGCCGCCGTCGCCGCCGCCGACGTCGCCGCGGAGTCACCTAGTGCAG”, the binding signal is 8920 fluorescence intensity (a.u.).

With “AAGAAAAGATCGAAGCTCCTATGTTTCATCACCATCTTCACGGAGTCACCTAGTGCAG”, the binding signal was 8440 fluorescence intensity (a.u.).

With “CCACCATCGCCATTGCCACCACCTCTCCTATATCTCGCCCCGGAGTCACCTAGTGCAG”, the binding signal was 10500 fluorescence intensity (a.u.).

For the sequence “CTCGCTCACAGTAGCCGCTTTCATTCACCATCGATTCCTCCGGAGTCACCTAGTGCAG”, the binding signal is 9450 fluorescence intensity (a.u.).

“TCGATTGCTCGCCCGCGCGGCCGTTGTTGTTGCAGGCCTCCGGAGTCACCTAGTGCAG”: the binding signal was 8060 fluorescence intensity (a.u.).

Take “ATATCCAGGTTCAACGTGCACCCCAACGCTAATCGATCATCGGAGTCACCTAGTGCAG”: the binding signal is 8880 fluorescence intensity (a.u.).

For the sequence “TAACTTCTATTCTAGAATTCGTTACATCTGGATTTTTTTTCGGAGTCACCTAGTGCAG”, the binding signal is 10500 fluorescence intensity (a.u.).

As to “TCATTGCACTTATTTTAGGACAGCCTACTCGCTTTTATTCCGGAGTCACCTAGTGCAG”, the binding signal was 8810 fluorescence intensity (a.u.).

With “GCATGTCCCTGTGTTCAGCCTTCCGAGTTCACATTCATCACGGAGTCACCTAGTGCAG”, the binding signal was 8370 fluorescence intensity (a.u.).

Turning to “GTTTCTTGCAGAATTTTGTGATTTTATTATTCTTATTATCCGGAGTCACCTAGTGCAG”, the binding signal was 8050 fluorescence intensity (a.u.).

In the case of “GTTTGTTGCAGTTTGGTGTGTATGTTTGTTGCACTTTGATCGGAGTCACCTAGTGCAG”, the binding signal is 9920 fluorescence intensity (a.u.).

As for “CTTGTGGATTTCGTTCGAGTTCTTGTGGTTTTGGATCGGGCGGAGTCACCTAGTGCAG”, the binding signal was 9590 fluorescence intensity (a.u.).

Regarding “GCCCACCGTCGCTCCGCTCGCCACCCGCCACCTGCTGCCTCGGAGTCACCTAGTGCAG”, the binding signal was 11900 fluorescence intensity (a.u.).

As to “ACCCGCGGTGACGCGCTCCTTGACTCGGCGCCCCTGCTCGCGGAGTCACCTAGTGCAG”, the binding signal was 8520 fluorescence intensity (a.u.).

For “GTTGTCTAGTGCTTGCTATTCTTCTACTAGTAGTATTATACGGAGTCACCTAGTGCAG”, the binding signal is 9570 fluorescence intensity (a.u.).

“CTCCACCTCCACTGCCGCCCCGCCGCCCAATCCACCACCACGGAGTCACCTAGTGCAG”: the binding signal is 8370 fluorescence intensity (a.u.).

Regarding “TTTCCCAGCATGTTCTGTGAAGTTTCCTTAGTCCATCTCCCGGAGTCACCTAGTGCAG”, the binding signal was 8960 fluorescence intensity (a.u.).

For the sequence “GGGAGGGGTGGCTCGGCGGCGGTGCGGGGTGGCGGTGCTCCGGAGTCACCTAGTGCAG”, the binding signal is 18700 fluorescence intensity (a.u.).

For “GATGATTGGTCCAAGTCATGGCTTCCGCTTTCCCTTTTGTCGGAGTCACCTAGTGCAG”, the binding signal is 10600 fluorescence intensity (a.u.).

As for “GAACCAGTATCCCGAACTTGTACACCACGCTTTCTTGGTCCGGAGTCACCTAGTGCAG”, the binding signal was 9530 fluorescence intensity (a.u.).

As for “AACCCTTTTATAGCACTTTTTTTTATCGGACATAACAAAACGGAGTCACCTAGTGCAG”, the binding signal was 9520 fluorescence intensity (a.u.).

“TCTTGGTCCTCTTATCCATATACTCTCTCCGTAAAAAAAACGGAGTCACCTAGTGCAG”: the binding signal is 8310 fluorescence intensity (a.u.).

On to “TACCGGATGATTTGTGTTCCTTTGCTGACTGTAGTGACGTCGGAGTCACCTAGTGCAG”, for which the binding signal is 11300 fluorescence intensity (a.u.).

On to “CGATGTTGACTTAAAGTCAGTCCTTTTAACTGATTTTCGGCGGAGTCACCTAGTGCAG”, for which the binding signal was 11200 fluorescence intensity (a.u.).

With “GTAGATCACGGCTTACTTTTCTTTTCTCCCAGTTTGATCACGGAGTCACCTAGTGCAG”, the binding signal was 8780 fluorescence intensity (a.u.).

Take “TTGCTATTCTCACCCATTACACTTGCTTATCCACAGTCATCGGAGTCACCTAGTGCAG”: the binding signal was 9240 fluorescence intensity (a.u.).

With “CCCTCGCAGCACCAACACCGCCGAGATCTCTCTTCTTCTTCGGAGTCACCTAGTGCAG”, the binding signal is 10400 fluorescence intensity (a.u.).

On to “GGTCGCTCGCCGTTCCTACTCCGAGTCCGAGTCAGTCCCTCGGAGTCACCTAGTGCAG”, for which the binding signal was 8380 fluorescence intensity (a.u.).

In the case of “CATCTTAATCTCATCATTAATTCCCTTGTGTAAACTCCTACGGAGTCACCTAGTGCAG”, the binding signal was 8500 fluorescence intensity (a.u.).

For the sequence “TAGCCTAATCTTACCATTAGTTGTTGTCCTTGGTTGAATCCGGAGTCACCTAGTGCAG”, the binding signal was 10100 fluorescence intensity (a.u.).
